Percent effect of library compounds

The chains behind the UniProt entries cited, without tags or fusion partners. Residues count along the entry.
UniProt P9WPC5, whole entry: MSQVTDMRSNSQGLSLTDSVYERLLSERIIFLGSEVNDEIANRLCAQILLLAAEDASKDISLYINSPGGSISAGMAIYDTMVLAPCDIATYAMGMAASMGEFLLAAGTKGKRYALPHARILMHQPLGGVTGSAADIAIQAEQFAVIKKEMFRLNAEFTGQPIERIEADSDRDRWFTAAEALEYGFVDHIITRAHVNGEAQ
UniProt P9WPC3, whole entry partner: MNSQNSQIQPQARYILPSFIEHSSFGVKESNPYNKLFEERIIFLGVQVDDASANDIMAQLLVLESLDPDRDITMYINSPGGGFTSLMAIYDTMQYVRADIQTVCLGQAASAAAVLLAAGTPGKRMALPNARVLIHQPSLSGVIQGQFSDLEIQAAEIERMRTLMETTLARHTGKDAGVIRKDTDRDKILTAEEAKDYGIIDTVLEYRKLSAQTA
UniProt Q8IDJ8, 1-583: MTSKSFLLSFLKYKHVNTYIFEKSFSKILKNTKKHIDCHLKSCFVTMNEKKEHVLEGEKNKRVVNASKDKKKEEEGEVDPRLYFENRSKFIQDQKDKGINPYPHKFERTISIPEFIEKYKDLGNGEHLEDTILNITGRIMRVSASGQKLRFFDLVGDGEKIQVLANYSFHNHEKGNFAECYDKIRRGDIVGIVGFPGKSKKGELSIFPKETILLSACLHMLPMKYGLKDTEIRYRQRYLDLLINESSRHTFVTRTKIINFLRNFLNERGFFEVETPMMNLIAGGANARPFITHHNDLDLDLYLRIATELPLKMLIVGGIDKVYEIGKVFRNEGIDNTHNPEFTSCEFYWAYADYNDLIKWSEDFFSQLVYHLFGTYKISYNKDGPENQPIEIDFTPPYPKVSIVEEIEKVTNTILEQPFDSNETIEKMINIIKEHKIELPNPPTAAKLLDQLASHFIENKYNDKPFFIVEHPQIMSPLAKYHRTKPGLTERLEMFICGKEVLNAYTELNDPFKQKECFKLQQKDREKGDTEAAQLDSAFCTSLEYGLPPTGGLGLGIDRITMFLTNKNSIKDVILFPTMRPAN
UniProt P9WFT3, whole entry: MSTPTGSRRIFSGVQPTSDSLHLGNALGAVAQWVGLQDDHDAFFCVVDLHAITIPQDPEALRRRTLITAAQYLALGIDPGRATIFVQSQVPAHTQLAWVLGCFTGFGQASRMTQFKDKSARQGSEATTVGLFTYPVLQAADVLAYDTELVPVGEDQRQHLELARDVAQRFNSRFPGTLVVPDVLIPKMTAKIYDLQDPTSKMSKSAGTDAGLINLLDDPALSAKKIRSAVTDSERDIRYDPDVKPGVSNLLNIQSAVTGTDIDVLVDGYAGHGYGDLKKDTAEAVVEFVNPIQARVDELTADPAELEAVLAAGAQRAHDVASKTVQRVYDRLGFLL
UniProt A4I591, 1-473: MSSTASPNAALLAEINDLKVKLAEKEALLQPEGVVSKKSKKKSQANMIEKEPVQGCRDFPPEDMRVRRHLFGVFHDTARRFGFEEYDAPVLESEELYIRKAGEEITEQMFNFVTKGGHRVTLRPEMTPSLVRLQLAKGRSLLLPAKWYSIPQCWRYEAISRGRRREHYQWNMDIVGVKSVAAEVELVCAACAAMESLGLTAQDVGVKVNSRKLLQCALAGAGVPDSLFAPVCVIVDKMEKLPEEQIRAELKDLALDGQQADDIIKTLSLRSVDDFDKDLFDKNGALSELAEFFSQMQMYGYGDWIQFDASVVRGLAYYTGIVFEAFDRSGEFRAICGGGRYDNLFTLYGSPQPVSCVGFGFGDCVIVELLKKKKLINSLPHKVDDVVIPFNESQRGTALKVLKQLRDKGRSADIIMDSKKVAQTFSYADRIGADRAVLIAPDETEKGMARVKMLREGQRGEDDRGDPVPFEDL
UniProt Q4DA54, 1-478: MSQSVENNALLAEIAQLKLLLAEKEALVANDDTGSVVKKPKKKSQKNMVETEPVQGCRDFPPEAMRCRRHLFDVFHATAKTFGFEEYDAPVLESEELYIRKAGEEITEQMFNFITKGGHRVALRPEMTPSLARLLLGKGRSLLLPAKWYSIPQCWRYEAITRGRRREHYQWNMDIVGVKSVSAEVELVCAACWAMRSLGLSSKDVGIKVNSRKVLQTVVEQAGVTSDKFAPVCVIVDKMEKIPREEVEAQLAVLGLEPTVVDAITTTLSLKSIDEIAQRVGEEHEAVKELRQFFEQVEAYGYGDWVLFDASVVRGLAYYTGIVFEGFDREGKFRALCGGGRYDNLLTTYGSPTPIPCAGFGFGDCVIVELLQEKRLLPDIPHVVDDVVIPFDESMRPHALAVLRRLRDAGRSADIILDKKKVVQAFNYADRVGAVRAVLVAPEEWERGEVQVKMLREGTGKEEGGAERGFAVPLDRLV

From ChEMBL document CHEMBL3988442, “University of Dundee, Small-Polar-MMV Screening Library” (2021).

The filed quantity is “Percent Effect” (%).
How 0% and 100% were set is not recorded. Most values in the screen are low, and negative values occur.
This is an unselected part of the compounds tested.
A dash means the value is not listed here; it may have been measured.

ClpP1P2: 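ClpP1P2, Mycobacterium tuberculosis (UniProt P9WPC5 and UniProt P9WPC3). Protease assay of ClpP1P2, read by the AMC dye that it sets free. Concentration: 50 µM. Higher reads as stronger inhibition, judged from the few compounds that gave an IC50. Most other retested compounds had strongly negative values. Size under these conditions: about 69,000 compounds, about 10 of them at 50% or above in at least one test.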
PfKRS1: 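Enzyme assay of the cytosolic lysyl-tRNA synthetase in 384-well plates, read by luminescence. Target: Lysine-tRNA ligase, Plasmodium falciparum 3D7 (UniProt Q8IDJ8). Tested at 30 µM. Higher reads as stronger inhibition, judged from the few compounds that gave an IC50. About 69,000 compounds were tested under these conditions; 0.071% (about 49) showed 50% or more at least once.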
MtTrpRS: 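Enzyme assay of tryptophanyl-tRNA synthetase; the read-out is not stated. Target: Tryptophan-tRNA ligase, Mycobacterium tuberculosis (UniProt P9WFT3). Tested at 10 µM. Direction is not recorded; retested compounds ran higher, which suggests that high means inhibition. Size under these conditions: about 65,000 compounds, about 64 of them at 50% or above in at least one test.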
LiHisRS: 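Enzyme assay of histidyl-tRNA synthetase; the read-out is not stated. Target: Histidine-tRNA ligase, Leishmania infantum (UniProt A4I591). Concentration: 30 µM. Higher reads as stronger inhibition (inferred: compounds with an IC50 in retests scored well above the rest). The assay is labelled LdHisRS but filed under L. infantum. Size under these conditions: about 69,000 compounds, about 410 of them at 50% or above in at least one test.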
TcHisRS: 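Enzyme assay of histidyl-tRNA synthetase; the read-out is not stated. Target: Histidine-tRNA ligase, Trypanosoma cruzi CL Brener (UniProt Q4DA54). Concentration: 30 µM. Direction is inferred from retests: higher values go with stronger inhibition. About 69,000 compounds were tested under these conditions; 0.045% (about 31) showed 50% or more at least once.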
Leishmania in macrophages: 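Cell assay of Leishmania donovani living inside macrophages; the read-out is not stated. Tested at 30 µM. Direction is inferred from retests: higher values go with stronger inhibition. Of about 69,000 compounds tested this way, about 1,000 (1.5%) reached 50% or more in at least one test.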

compound,ClpP1P2,PfKRS1,MtTrpRS,LiHisRS,TcHisRS,Leishmania in macrophages
Cc1nccc(C2(C)CCCNC2)n1.Cl.Cl (stereo not drawn),-,-,-,-,-,-51.59%
CCCc1cc(C(=O)N2Cc3cnc(C(C)(C)C)nc3C2)ccn1,-12.52%,5.424%,1.347%,16.13%,2.041%,-4.487%
CN1C(=O)C2(CCN(c3ncccc3C(=O)O)CC2)c2ccccc21,-3.637%,2.824%,-4.549%,14.46%,2.762%,5.862%
Cn1ncc2c(N[C@H]3CCCC[C@@H]3O)nc(C(C)(C)C)nc21,-9.244%,6.247%,0.7807%,16.13%,-1.149%,44.26%
CCSc1cc(C(=O)NC(C)c2cccc(N3CCOC3=O)c2)ccn1 (stereo not drawn),-6.478%,-2.55%,-2.832%,-6.667%,5.455%,46.28%
Cc1nc(N)sc1C(=O)N[C@H]1CN(CCO)C[C@@H]1C1CC1,-3.37%,4.273%,-2.918%,0%,1.571%,18.85%
CO[C@H]1CCN(S(=O)(=O)c2cccs2)[C@H]1Cc1cccnc1,-11.37%,-1.161%,0.4115%,35.29%,10.84%,-
O=C(O)CSc1nccc(-c2ccc3c(c2)OCO3)n1,-36.54%,6.23%,-0.000006%,14.29%,7.921%,-5.876%
CCn1cc(S(=O)(=O)Nc2nc3c(s2)CC(C)CC3)cn1 (stereo not drawn),7.481%,-0.8448%,1.29%,15.96%,13.13%,3.375%
COc1cc(CCC(=O)NC2CCCN(C)C2)ccc1OCC(F)(F)F (stereo not drawn),-10.84%,2.963%,-0.5303%,13.16%,1.734%,19.05%
CCc1nnc(C(C)N(C)Cc2c(C)nn(-c3ccccc3)c2C)o1 (stereo not drawn),-12.64%,0.2502%,0.7452%,5.479%,6.557%,21.58%
Cc1cc(N2CCCC(N(C)C)C2)n2nccc2n1 (stereo not drawn),-3.019%,-0.7131%,4.575%,11.11%,4.242%,26.45%
O=C(O)C(F)(F)F.[H][C@@]12COC[C@]1(COCc1csc(C)n1)CN(Cc1cc(C)on1)C2,-,-,-,-,-,12.89%
CC(=O)Nc1cccc(OCCNC(=O)N(C)Cc2ccccc2)c1,-6.069%,5.421%,0.07241%,-4.464%,3.333%,-19.04%
O=C(NCCN1CCCCCC1=O)Nc1cccnc1-n1cccn1,0.4496%,-2.226%,11.58%,18.75%,1.042%,18%
c1ccc(-n2cncn2)c(CNCCn2cccn2)c1,-8.641%,7.319%,-2.57%,1.299%,7.389%,25.33%
Cn1ncc2c1NC(=O)CSC2c1ccccc1Cl (stereo not drawn),-18.58%,-3.116%,-1.898%,-15%,-1.242%,-10.2%
COc1cc(C(=O)N2CCO[C@H]3[C@H](OCC4CC4)CC[C@@H]32)ccc1F,5.613%,7.939%,0.3236%,12.07%,3.797%,-
Cc1cc(Nc2ccc(F)cn2)cc(C2CCN(Cc3ncc[nH]3)C2)n1 (stereo not drawn),-26.9%,-1.087%,-2.514%,22.82%,6.571%,45.3%
CCn1cc(CN2CCCN(C(=O)CCCn3cncn3)CC2)cn1,-6.403%,2.098%,1.199%,10.96%,1.527%,31.4%
c1cnnc(N2CCCC2CNc2ncnc3c2CCC3)c1 (stereo not drawn),1.69%,5.129%,-0.6823%,21.62%,5.639%,28.42%
CCN(CC)c1nc(C)cc(C(=O)Nc2cnn(CC)c2)n1,-0.04017%,0.2059%,2.136%,18.68%,6.931%,-34.14%
COCCN1C(=O)CC[C@@H]2[C@H]1CCN2C(=O)N(C)C,5.49%,1.634%,-7.136%,22%,4.598%,-
COc1ccc(CN(C)CC(O)COCc2ccccc2Cl)c(OC)c1 (stereo not drawn),-1.569%,2.786%,2.522%,-5.263%,-1.22%,-
O=C(Cc1ccsc1)N1CCc2ncc(Cn3cccn3)n2CC1,0.7411%,3.471%,-3.753%,22%,10.78%,23.98%
O=C(c1cscn1)N1CCC[C@]2(C[C@@H](OCC3CC3)CO2)C1,-16.04%,-1.209%,-3.284%,16%,3.922%,16.82%
Cc1ccc(C(=O)N2CCc3ncccc3C2)cc1N1CCNC1=O,-1.51%,6.785%,1.374%,5.208%,4.469%,0.1419%
COc1ccc(OC)c(CN2CCN(Cc3cscn3)CC2)c1,2.655%,2.079%,0.7897%,16.07%,-26.32%,22.96%
COc1cccc(-c2cc(C(=O)N3N=C(C)CC3(O)C(F)(F)F)[nH]n2)c1 (stereo not drawn),-24.05%,0.6609%,1.898%,-5%,1.242%,-40.2%
c1ccc2c(CC3CN(Cc4nccs4)CCO3)cccc2c1 (stereo not drawn),-43.76%,4.465%,-0.7852%,11.97%,4.865%,-9.663%

The last 2 entries again:

{"compound": "COc1cccc(-c2cc(C(=O)N3N=C(C)CC3(O)C(F)(F)F)[nH]n2)c1", "stereo": "stereo not drawn", "ClpP1P2": -24.05, "PfKRS1": 0.6609, "MtTrpRS": 1.898, "LiHisRS": -5, "TcHisRS": 1.242, "Leishmania in macrophages": -40.2}
{"compound": "c1ccc2c(CC3CN(Cc4nccs4)CCO3)cccc2c1", "stereo": "stereo not drawn", "ClpP1P2": -43.76, "PfKRS1": 4.465, "MtTrpRS": -0.7852, "LiHisRS": 11.97, "TcHisRS": 4.865, "Leishmania in macrophages": -9.663}